Measured data: PubChem BioAssay AID1259254 (NCATS, 2017)
Here is an unselected part of about 59,000 deposited reagents. About 1,550 of them (2.6%) count as active. 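G2 share is only a proxy for re-replication; each gene was hit by three separate siRNAs, and active genes were retested.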 Raw values vary from plate to plate and are shown uncorrected. A number with no mark means an inactive call. The numbers tell different reagents against one gene apart. Not stated in the record: the amount of reagent.

Screen: 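Finding genes that stop cells copying their DNA twice in one cycle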 (primary screen)
Cell system: human HCT116 colorectal cancer cells
Reagents: single siRNA against human genes
Duration: 3 days
Read-out: 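Imaged Hoechst DNA stain sorts each cell into a cycle phase by DNA amount; per plate, G2 fraction set to 0% for non-targeting and 100% for GMNN siRNA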
Scale: G2 robust z-score and G2 cells, % of GMNN control: higher = more G2 cells, more excess DNA replication; raw share of cells in G2: higher = larger share of cells with G2 DNA content
Call rule: 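Active siRNAs have a G2 robust z of 5 or more median absolute deviations over the median, which in these data means about 38% or higher of GMNN control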

no.	gene	siRNA no.	G2 robust z-score	G2 cells, % of GMNN control	raw share of cells in G2 (%)
1	SPDYE10	1	0.593	7.14	5.84
2	SPDYE10	2	-0.093	2.31	3.82
3	SPDYE10	3	1.15	11	7.84
4	KRR1	1	4.18	32.4	14.9
5	KRR1	2	3.94	30.7	14.4
6	KRR1	3	0.0709	3.47	7.76
7	LRRC74A	1	-0.176	1.73	4.41
8	LRRC74A	2	1.69	14.8	7.49
9	LRRC74A	3	0.39	5.71	5.06
10	CHMP2A	1	2.54	20.8	11.8
11	CHMP2A	2	4.34	33.5	17.2
12	CHMP2A	3	4.13	32	13.3
13	BHLHA9	1	-0.596	-1.23	3.14
14	BHLHA9	2	0.465	6.24	5.91
15	BHLHA9	3	0.422	5.93	4.96
16	LPO	1	-1.35	-6.5	2.89
17	LPO	2	-0.817	-2.78	4.29
18	LPO	3	-0.55	-0.904	2.9
19	SLC26A4	1	-0.785	-2.56	3.96
20	SLC26A4	2	-0.303	0.839	3.75
21	SLC26A4	3	2.29	19.1	10.1
22	SLC7A1	1	-0.873	-3.17	3.46
23	SLC7A1	2	-0.979	-3.92	2.66
24	SLC7A1	3	-1.25	-5.82	3.72
25	DHRS7B	1	-0.511	-0.63	3.98
26	DHRS7B	2	-1.17	-5.28	2.26
27	DHRS7B	3	2.24	18.7	14.7
28	ZP2	1	-0.205	1.53	4.83
29	ZP2	2	-0.273	1.05	6.04
30	ZP2	3	-1.31	-6.24	2.42
31	LOC645645 (retired record)	1	0.879	9.15	7.23
32	LOC645645 (retired record)	2	-0.973	-3.88	1.79
33	LOC645645 (retired record)	3	0.00415	3	3.99

An excerpt from above, reduced to “raw share of cells in G2 (%)”.
SLC26A4 #1 = 3.96
SLC26A4 #2 = 3.75
SLC26A4 #3 = 10.1
SLC7A1 #1 = 3.46
SLC7A1 #2 = 2.66
SLC7A1 #3 = 3.72
DHRS7B #1 = 3.98
DHRS7B #2 = 2.26
DHRS7B #3 = 14.7
ZP2 #1 = 4.83
ZP2 #2 = 6.04
ZP2 #3 = 2.42

Additional reagents follow.
no.	gene	siRNA no.	G2 robust z-score	G2 cells, % of GMNN control	raw share of cells in G2 (%)
34	OR2T2	1	8.4 (active)	62.1	26.4
35	OR2T2	2	2.31	19.2	11.1
36	OR2T2	3	-0.114	2.17	5.69
37	MOCOS	1	0.906	9.34	8.11
38	MOCOS	2	0.387	5.69	6.49
39	MOCOS	3	-0.796	-2.63	2.3
40	SUN1	1	-0.66	-1.68	3.78
41	SUN1	2	-0.249	1.22	4.47
42	SUN1	3	1.1	10.7	7.05
43	CCDC83	1	0.448	6.12	5.8
44	CCDC83	2	0.209	4.44	4.65
45	CCDC83	3	3.6	28.3	12.2
46	OTOS	1	-1.08	-4.6	2.29
47	OTOS	2	-0.767	-2.43	2.16
48	OTOS	3	-0.382	0.278	3.17
49	LIMD1	1	-0.299	0.861	3.81
50	LIMD1	2	-0.0992	2.27	7
51	LIMD1	3	0.438	6.05	5.87
52	RAB11FIP1	1	3.16	25.2	14.9
53	RAB11FIP1	2	2.15	18.1	12.2
54	RAB11FIP1	3	-0.143	1.96	2.91
55	PISD	1	-1.29	-6.12	1.99
56	PISD	2	-0.991	-4.01	2.86
57	PISD	3	-0.204	1.53	6.86
58	CCK	1	-0.642	-1.55	4.58
59	CCK	2	-0.823	-2.82	3.05
60	CCK	3	-0.054	2.59	4.54
61	JOSD1	1	0.198	4.36	7.3
62	JOSD1	2	0.0897	3.6	5.45
63	JOSD1	3	-0.389	0.229	3.49
64	C1orf115	1	0.536	6.74	7.24
65	C1orf115	2	-0.39	0.222	4.4
66	C1orf115	3	-0.919	-3.5	1.42
67	TSGA10	1	-0.931	-3.58	1.4
68	TSGA10	2	-0.304	0.832	4.79
69	TSGA10	3	-0.315	0.752	4.63
